Assay [1] deals with T1, GST-fused SH3(A-E) domains of ITSN2 (residues 749-1193) (human) (UniProt Q9NZM3).
T1 sequence: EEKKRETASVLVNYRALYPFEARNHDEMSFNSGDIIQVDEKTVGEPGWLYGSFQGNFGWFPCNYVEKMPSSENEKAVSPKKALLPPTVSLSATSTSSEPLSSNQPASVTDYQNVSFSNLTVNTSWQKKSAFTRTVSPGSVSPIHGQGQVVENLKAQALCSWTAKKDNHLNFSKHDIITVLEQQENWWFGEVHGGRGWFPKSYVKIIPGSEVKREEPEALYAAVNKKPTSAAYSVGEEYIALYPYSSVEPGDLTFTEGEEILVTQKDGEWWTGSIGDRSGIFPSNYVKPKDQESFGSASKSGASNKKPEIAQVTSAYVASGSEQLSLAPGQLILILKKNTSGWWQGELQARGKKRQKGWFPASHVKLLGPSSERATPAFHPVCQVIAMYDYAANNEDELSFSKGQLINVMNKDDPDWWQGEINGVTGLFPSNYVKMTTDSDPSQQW
The assay can be described thus: pull-down; GST-SH3 domains (5-20 ug) on glutathione beads incubated 2 h at 4°C with lysate of HEK293 cells expressing the tagged protein; 20 mM Tris-HCl pH 7.5, 0.5% NP40, 150 mM NaCl, 10% glycerol, 1 mM Na3VO4; immunoblot with antibodies against tags; only the target purified. On the technique in general: A western blot detects proteins with antibodies after separation by electrophoresis.

Chains of the proteins cited; added tags and fusions are not shown. Residues count along the entry.
UniProt O00401, residues 22-459: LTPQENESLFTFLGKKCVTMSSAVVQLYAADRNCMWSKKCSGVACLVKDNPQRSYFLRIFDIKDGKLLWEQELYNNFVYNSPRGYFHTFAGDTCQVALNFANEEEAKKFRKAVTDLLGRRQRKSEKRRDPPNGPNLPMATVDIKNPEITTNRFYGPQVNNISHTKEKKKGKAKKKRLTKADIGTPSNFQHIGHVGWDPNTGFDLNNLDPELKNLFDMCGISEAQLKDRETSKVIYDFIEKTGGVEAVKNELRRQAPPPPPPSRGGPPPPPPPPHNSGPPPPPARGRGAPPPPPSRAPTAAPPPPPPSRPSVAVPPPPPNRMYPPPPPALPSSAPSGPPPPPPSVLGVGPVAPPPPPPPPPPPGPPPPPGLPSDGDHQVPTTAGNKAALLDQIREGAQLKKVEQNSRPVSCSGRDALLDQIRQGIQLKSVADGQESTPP
UniProt O43426, residues 1003-1558: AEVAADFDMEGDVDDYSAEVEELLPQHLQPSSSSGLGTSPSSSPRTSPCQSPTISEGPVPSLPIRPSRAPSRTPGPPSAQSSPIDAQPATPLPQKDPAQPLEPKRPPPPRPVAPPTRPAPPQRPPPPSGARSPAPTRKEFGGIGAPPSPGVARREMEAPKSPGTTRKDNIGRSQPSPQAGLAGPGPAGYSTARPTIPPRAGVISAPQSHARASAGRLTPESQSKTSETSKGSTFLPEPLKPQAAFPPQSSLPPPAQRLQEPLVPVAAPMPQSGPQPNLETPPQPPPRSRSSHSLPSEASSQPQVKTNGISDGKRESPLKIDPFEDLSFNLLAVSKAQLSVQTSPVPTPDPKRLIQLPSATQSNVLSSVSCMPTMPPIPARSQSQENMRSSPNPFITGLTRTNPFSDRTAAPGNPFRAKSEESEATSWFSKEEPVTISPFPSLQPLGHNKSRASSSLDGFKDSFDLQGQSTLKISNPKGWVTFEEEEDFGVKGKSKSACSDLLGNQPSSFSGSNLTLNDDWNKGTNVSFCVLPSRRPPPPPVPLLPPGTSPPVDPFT

Assay [2] has as its target T2, GST-fused SH3A domain of ITSN2 (residues 749-826) (human) (UniProt Q9NZM3).
T2 sequence: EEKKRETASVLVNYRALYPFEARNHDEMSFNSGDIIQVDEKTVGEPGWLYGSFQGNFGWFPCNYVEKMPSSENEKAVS
The assay is described as above.

For assay [3], the target named is T3, GST-fused SH3C domain of ITSN2 (residues 976-1047) (human) (UniProt Q9NZM3).
T3 sequence: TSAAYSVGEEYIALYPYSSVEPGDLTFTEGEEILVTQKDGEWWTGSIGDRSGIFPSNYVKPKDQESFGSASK
The assay is described as above.

Assay [4] addresses T4, GST-fused SH3E domain of ITSN2 (residues 1116-1193) (human) (UniProt Q9NZM3).
T4 sequence: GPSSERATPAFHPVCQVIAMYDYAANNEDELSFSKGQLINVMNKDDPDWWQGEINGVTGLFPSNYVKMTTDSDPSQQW
The assay is described as above.

The target of assay [5] is T2, GST-fused SH3A domain of ITSN2 (residues 749-826) (human). The experiment in a line: pull-down; GST-SH3 domains (5-20 ug) on glutathione beads incubated 2 h at 4°C with lysate of mouse brain; 20 mM Tris-HCl pH 7.5, 0.5% NP40, 150 mM NaCl, 10% glycerol, 1 mM Na3VO4; immunoblot with antibodies against dynamin 1 or SOS1; only the target purified.
For assay [6], the target named is T3, GST-fused SH3C domain of ITSN2 (residues 976-1047) (human). The assay is described as above.
For assay [7], the target named is T4, GST-fused SH3E domain of ITSN2 (residues 1116-1193) (human). Described as above.

No constants are given. Whether binding was seen depends on the method and setting. Binding seen in cells or lysates may run through a third protein. Some entries that bind do so weakly or less than the wild type. Where a sequence is shown, tags or fusion partners need not be part of it.

Turning to “Omni-N-WASP proline-rich domain (residues 22-459) (from UniProt O00401 22-459) (domain or fragment)”, the binding result in assay [1] is “binds”.

Take “Omni-synaptojanin 1 proline-rich domain (residues 1003-1558) (from UniProt O43426 1003-1558) (domain or fragment)”: the binding result in assay [2], in assay [3] and in assay [4] was “binds” each time.

As for “SOS1, endogenous in mouse brain (from UniProt Q62245 1-1319)”, the binding entry in assay [5], in assay [6] and in assay [7] was “binds” throughout.

B1: Omni-Reps1 (full-length) (protein, UniProt Q96D71 1-796)
chain: MEGLTLSDAEQKYYSDLFSYCDIESTKKVVVNGRVLELFRAAQLPNDVVLQIMELCGATRLGYFGRSQFYIALKLVAVAQSGFPLRVESINTVKDLPLPRFVASKNEQESRHAASYSSDSENQGSYSGVIPPPPGRGQVKKGSVSHDTVQPRTSADAQEPASPVVSPQQSPPTSPHTWRKHSRHPSGGNSERPLAGPGPFWSPFGEAQSGSSAGDAVWSGHSPPPPQENWVSFADTPPTSTLLTMHPASVQDQTTVRTVASATTAIEIRRQSSSYDDPWKITDEQRQYYVNQFKTIQPDLNGFIPGSAAKEFFTKSKLPILELSHIWELSDFDKDGALTLDEFCAAFHLVVARKNGYDLPEKLPESLMPKLIDLEDSADVGDQPGEVGYSGSPAEAPPSKSPSMPSLNQTWPELNQSSEQWETFSERSSSSQTLTQFDSNIAPADPDTAIVHPVPIRMTPSKIHMQEMELKRTGSDHTNPTSPLLVKPSDLLEENKINSSVKFASGNTVADGYSSSDSFTSDPEQIGSNVTRQRSHSGTSPDNTAPPPPPPRPQPSHSRSSSLDMNRTFTVTTGQQQAGVVAHPPAVPPRPQPSQAPGPAVHRPVDADGLITHTSTSPQQIPEQPNFADFSQFEVFAASNVNDEQDDEAEKHPEVLPAEKASDPASSLRVAKTDSKTEEKTAASAPANVSKGTTPLAPPPKPVRRRLKSEDELRPEVDEHTQKTGVLAAVLASQPSIPRSVGKDKKAIQASIRRNKETNTVLARLNSELQQQLKDVLEERISLEVQLEQLRPFSHL
As to B1, the binding entry in assay [1] was “binds”.

B2: Myc-POB1 (protein, UniProt Q8NFH8 1-660)
chain: MEAAAAAAAAAAAAAAAGGGCGSGPPPLLLSEGEQQCYSELFARCAGAAGGGPGSGPPEAARVAPGTATAAAGPVADLFRASQLPAETLHQITELCGAKRVGYFGPTQFYIALKLIAAAQSGLPVRIESIKCELPLPRFMMSKNDGEIRFGNPAELHGTKVQIPYLTTEKNSFKRMDDEDKQQETQSPTMSPLASPPSSPPHYQRVPLSHGYSKLRSSAEQMHPAPYEARQPLVQPEGSSSGGPGTKPLRHQASLIRSFSVERELQDNSSYPDEPWRITEEQREYYVNQFRSLQPDPSSFISGSVAKNFFTKSKLSIPELSYIWELSDADCDGALTLPEFCAAFHLIVARKNGYPLPEGLPPTLQPEYLQAAFPKPKWDCQLFDSYSESLPANQQPRDLNRMEKTSVKDMADLPVPNQDVTSDDKQALKSTINEALPKDVSEDPATPKDSNSLKARPRSRSYSSTSIEEAMKRGEDPPTPPPRPQKTHSRASSLDLNKVFQPSVPATKSGLLPPPPALPPRPCPSQSEQVSEAELLPQLSRAPSQAAESSPAKKDVLYSQPPSKPIRRKFRPENQATENQEPSTAASGPASAATMKPHPTVQKQSSKQKKAIQTAIRKNKEANAVLARLNSELQQQLKEVHQERIALENQLEQLRPVTVL
As for B2, the binding entry in assay [1] was “binds”.

B3: Flag-SPRY2 (protein, UniProt O43597 1-315)
chain: MEARAQSGNGSQPLLQTPRDGGRQRGEPDPRDALTQQVHVLSLDQIRAIRNTNEYTEGPTVVPRPGLKPAPRPSTQHKHERLHGLPEHRQPPRLQHSQVHSSARAPLSRSISTVSSGSRSSTRTSTSSSSSEQRLLGSSFSSGPVADGIIRVQPKSELKPGELKPLSKEDLGLHAYRCEDCGKCKCKECTYPRPLPSDWICDKQCLCSAQNVIDYGTCVCCVKGLFYHCSNDDEDNCADNPCSCSQSHCCTRWSAMGVMSLFLPCLWCYLPAKGCLKLCQGCYDRVNRPGCRCKNSNTVCCKVPTVPPRNFEKPT
Consider B3, for which the binding result in assay [2], in assay [3] and in assay [4] was “binds” each time.

B4: Omni-Sema6A cytoplasmic domain (residues 650-1021) (domain or fragment, UniProt Q9H2E6 650-1021)
chain: LLAIAVILAFVMGAVFSGITVYCVCDHRRKDVAVVQRKEKELTHSRRGSMSSVTKLSGLFGDTQSKDPKPEAILTPLMHNGKLATPGNTAKMLIKADQHHLDLTALPTPESTPTLQQKRKPSRGSREWERNQNLINACTKDMPPMGSPVIPTDLPLRASPSHIPSVVVLPITQQGYQHEYVDQPKMSEVAQMALEDQAATLEYKTIKEHLSSKSPNHGVNLVENLDSLPPKVPQREASLGPPGASLSQTGLSKRLEMHHSSSYGVDYKRSYPTNSLTRSHQATTLKRNNTNSSNSSHLSRNQSFGRGDNPPPAPQRVDSIQVHSSQPSGQAVTVSRQPSLNAYNSLTRSGLKRTPSLKPDVPPKPSFAPLST
On to B4, for which the binding entry in assay [2], in assay [3] and in assay [4] was “binds” throughout.

B5: dynamin 1, endogenous in mouse brain (protein, UniProt P39053 1-867)
chain: MGNRGMEDLIPLVNRLQDAFSAIGQNADLDLPQIAVVGGQSAGKSSVLENFVGRDFLPRGSGIVTRRPLVLQLVNSTTEYAEFLHCKGKKFTDFEEVRLEIEAETDRVTGTNKGISPVPINLRVYSPHVLNLTLVDLPGMTKVPVGDQPPDIEFQIRDMLMQFVTKENCLILAVSPANSDLANSDALKIAKEVDPQGQRTIGVITKLDLMDEGTDARDVLENKLLPLRRGYIGVVNRSQKDIDGKKDITAALAAERKFFLSHPSYRHLADRMGTPYLQKVLNQQLTNHIRDTLPGLRNKLQSQLLSIEKEVDEYKNFRPDDPARKTKALLQMVQQFAVDFEKRIEGSGDQIDTYELSGGARINRIFHERFPFELVKMEFDEKELRREISYAIKNIHGIRTGLFTPDMAFETIVKKQVKKIREPCLKCVDMVISELISTVRQCTKKLQQYPRLREEMERIVTTHIREREGRTKEQVMLLIDIELAYMNTNHEDFIGFANAQQRSNQMNKKKTSGNQDEILVIRKGWLTINNIGIMKGGSKEYWFVLTAENLSWYKDDEEKEKKYMLSVDNLKLRDVEKGFMSSKHIFALFNTEQRNVYKDYRQLELACETQEEVDSWKASFLRAGVYPERVGDKEKASETEENGSDSFMHSMDPQLERQVETIRNLVDSYMAIVNKTVRDLMPKTIMHLMINNTKEFIFSELLANLYSCGDQNTLMEESAEQAQRRDEMLRMYHALKEALSIIGDINTTTVSTPMPPPVDDSWLQVQSVPAGRRSPTSSPTPQRRAPAVPPARPGSRGPAPGPPPAGSALGGAPPVPSRPGASPDPFGPPPQVPSRPNRAPPGVPSLGAWRLNSPQGKHENRAGKARL
B5: the binding result in assay [5], in assay [6] and in assay [7] was “binds” throughout.

(Values after article PMC3723668.)
